Data from paper PMC11833736 (ACS Pharmacology & Translational Science, 2025).
Where a name gives a salt, the structure may show the parent alone.

Columns and labels:
SH-SY5Y cells = assay: Cytotoxicity, SRB end-point assay, dark or green light; type: cell-based; conditions: for EC50: kept in the dark, SRB, normoxic (21% O2)
[1] = test system: U-87MG glioblastoma cells; assay: as above; conditions: Homo sapiens, light or radiation study, read-out: EC50,GL

Structure (SMILES): COc1cc2c(cc1OC)C(=O)C(CC1CCN(Cc3ccccc3)CC1)C2 (stereo not shown) [donepezil HCl, reference compound]
- EC50 (SH-SY5Y cells; Homo sapiens): 59 µM
- impact on cell growth (in words) (SH-SY5Y cells; irradiated with green light): had no impact on cell growth
- EC50 (SH-SY5Y cells): 59.1 µM
- EC50 [1]: > 100 µM
